Patent publication US20020151680A1
Results are given in words; binding and its absence hold for the method and conditions named. Some binding calls cover weakened binding; strength is not graded here.

The chains behind the UniProt entries cited, without tags or fusion partners. Residues count along the entry.
UniProt P35968, residues 24-326: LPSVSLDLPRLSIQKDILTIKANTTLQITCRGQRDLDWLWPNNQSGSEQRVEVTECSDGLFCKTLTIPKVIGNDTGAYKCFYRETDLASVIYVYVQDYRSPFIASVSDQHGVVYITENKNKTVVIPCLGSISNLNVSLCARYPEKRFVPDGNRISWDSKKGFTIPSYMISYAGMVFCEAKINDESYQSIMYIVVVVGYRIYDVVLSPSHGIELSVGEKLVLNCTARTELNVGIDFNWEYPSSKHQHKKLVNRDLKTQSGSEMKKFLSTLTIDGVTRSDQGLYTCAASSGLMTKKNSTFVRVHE
UniProt P17948, residues 27-331: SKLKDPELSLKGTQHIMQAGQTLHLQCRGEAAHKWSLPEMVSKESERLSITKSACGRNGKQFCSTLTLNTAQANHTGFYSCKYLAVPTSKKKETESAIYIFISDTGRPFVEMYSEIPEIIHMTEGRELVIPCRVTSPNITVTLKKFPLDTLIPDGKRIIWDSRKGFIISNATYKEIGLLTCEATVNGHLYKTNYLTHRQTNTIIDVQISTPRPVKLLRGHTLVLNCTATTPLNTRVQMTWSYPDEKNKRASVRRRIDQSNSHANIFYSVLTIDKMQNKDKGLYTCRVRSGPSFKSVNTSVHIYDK

Target: VEGFR-2-Fc (UniProt P35968)
Assay: 35S IP, receptor-Fc

Row | Binder | binding
1 | 33-9 (ligand) GQNHHEVVKSIDNEWRKTQCMPIETLVDIFQEYPDEIEYIFKPPCVSVYRCGGCCNDEGLECVPTEESNITMQIMRITVPLSQGPKPVTISFLQHNKCECRPKKD | binds
2 | 74-8 (ligand) GQNHHEVVKSIDNEWRKTQCMPREVCIDVGKEFGVATNTFFKPSCVPLMRCGGCCNSEGLQCMNTSTSYLSKTLFEIKPHQGQHIGEMSFANHTSCRCMSKLD | binds
3 | 62-10 (ligand) GQNHHEVVKFMDVYQRSYCHPREVCIDVGKEFGVATNTFFKPPCVSVYRCGGCCNDEGLECMNTSTSYLSKTLFEITVPLSQGPKPVTISFLQHNKCECRPKKD | binds
4 | 33-1 (ligand) GQNHHEVVKSIDNEWRKTQCMPIETLVDIFQEYPDEIEYIFKPPCVSVYRCGGCCNDEGLECVPTEESNITMQIMRIKPHQGQHIGEMSFLQHNKCECRPKKD | binds
5 | 33-3 (ligand) GQNHHEVVKSIDNEWRKTQCMPIETLVDIFQEYPDEIEYIFKPPCVSVYRCGGCCNSEGLQCVPTEESNITMQIMRIKPHQGQHIGEMSFLQHNKCECRPKKD | binds
6 | 62-8 (ligand) GQNHHEVVKFMDVYQRSYCHPREVCIDVGKEFGVATNTFFKPPCVSVYRCGGCCNSEGLQCMNTSTSYLSKTLFEIKPHQGQHIGEMSFANHTSCRCMSKLD | binds
7 | 53-7 (ligand) AHYNTEILKSIDNEWRKTQCMPIETLVDIFQEYPDEIEYIFKPPCVSVYRCGGCCNSEGLQCVPTEESNITMQIMRIKPHQGQHIGEMSFANHTSCRCMSKLD | binds
8 | 83-1 (ligand) AHYNTEILKFMDVYQRSYCHPIETLVDIFQEYPDEIEYIFKPPCVSVYRCGGCCNDEGLECVPTEESNITMQIMRIKPHQGQHIGEMSFLQHNKCECRPKKD | binds
9 | 83-5 (ligand) AHYNTEILKFMDVYQRSYCHPIETLVDIFQEYPDEIEYIFKPPCVSVYRCGGCCNDEGLECVPTEESNITMQIMRIKPHQGQHIGEMSFANHTSCRCMSKLD | binds
10 | 62-13 (ligand) GQNHHEVVKFMDVYQRSYCHPREVCIDVGKEFGVATNTFFKPPCVSVYRCGGCCNDEGLECVPTEESNITMQIMRITVPLSQGPKPVTISFANHTSCRCMSKLD | binds
11 | 73-15 (ligand) GQNHHEVVKSIDNEWRKTQCMPREVCIDVGKEYPDEIEYIFKPPCVSVYRCGGCCNSEGLQCVPTEESNITMQIMRITVPLSQGPKPVTISFANHTSCRCMSKLD | binds

Continued, values first:

Row | binding | Binder
12 | binds | 23-12 (ligand) AHYNTEILKSIDNEWRKTQCMPREVCIDVGKEYPDEIEYIFKPPCVSVYRCGGCCNSEGLQCMNTSTSYLSKTLFEITVPLSQGPKPVTISFLQHNKCECRPKKD
13 | binds | 74-10 (ligand) GQNHHEVVKSIDNEWRKTQCMPREVCIDVGKEFGVATNTFFKPSCVPLMRCGGCCNDEGLECMNTSTSYLSKTLFEITVPLSQGPKPVTISFLQHNKCECRPKKD
14 | binds | 74-12 (ligand) GQNHHEVVKSIDNEWRKTQCMPREVCIDVGKEFGVATNTFFKPSCVPLMRCGGCCNSEGLQCMNTSTSYLSKTLFEITVPLSQGPKPVTISFLQHNKCECRPKKD
15 | binds | 14-7 (ligand) GQNHHEVVKFMDVYQRSYCHPIETLVDIFQEFGVATNTFFKPSCVPLMRCGGCCNSEGLQCVPTEESNITMQIMRIKPHQGQHIGEMSFANHTSCRCMSKLD
16 | binds | 53-1 (ligand) AHYNTEILKSIDNEWRKTQCMPIETLVDIFQEYPDEIEYIFKPPCVSVYRCGGCCNDEGLECVPTEESNITMQIMRIKPHQGQHIGEMSFLQHNKCECRPKKD
17 | binds | 63-6 (ligand) GQNHHEVVKFMDVYQRSYCHPREVCIDVGKEYPDEIEYIFKPPCVSVYRCGGCCNDEGLECMNTSTSYLSKTLFEIKPHQGQHIGEMSFANHTSCRCMSKLD
18 | binds | 83-3 (ligand) AHYNTEILKFMDVYQRSYCHPIETLVDIFQEYPDEIEYIFKPPCVSVYRCGGCCNSEGLQCVPTEESNITMQIMRIKPHQGQHIGEMSFLQHNKCECRPKKD
19 | binds | 63-3 (ligand) GQNHHEVVKFMDVYQRSYCHPREVCIDVGKEYPDEIEYIFKPPCVSVYRCGGCCNSEGLQCVPTEESNITMQIMRIKPHQGQHIGEMSFLQHNKCECRPKKD
20 | binds | 73-7 (ligand) GQNHHEVVKSIDNEWRKTQCMPREVCIDVGKEYPDEIEYIFKPPCVSVYRCGGCCNSEGLQCVPTEESNITMQIMRIKPHQGQHIGEMSFANHTSCRCMSKLD

Target: VEGFR-1-Fc (UniProt P17948)
Assay: 35S IP, receptor-Fc

Row | Binder | binding
21 | 84-1 (ligand) AHYNTEILKFMDVYQRSYCHPIETLVDIFQEFGVATNTFFKPSCVPLMRCGGCCNDEGLECVPTEESNITMQIMRIKPHQGQHIGEMSFLQHNKCECRPKKD | binds
22 | 14-5 (ligand) GQNHHEVVKFMDVYQRSYCHPIETLVDIFQEFGVATNTFFKPSCVPLMRCGGCCNDEGLECVPTEESNITMQIMRIKPHQGQHIGEMSFANHTSCRCMSKLD | binds
23 | 13-11 (ligand) GQNHHEVVKFMDVYQRSYCHPIETLVDIFQEYPDEIEYIFKPPCVSVYRCGGCCNSEGLQCVPTEESNITMQIMRITVPLSQGPKPVTISFLQHNKCECRPKKD | binds
24 | 83-1 (ligand) AHYNTEILKFMDVYQRSYCHPIETLVDIFQEYPDEIEYIFKPPCVSVYRCGGCCNDEGLECVPTEESNITMQIMRIKPHQGQHIGEMSFLQHNKCECRPKKD | binds
25 | 83-5 (ligand) AHYNTEILKFMDVYQRSYCHPIETLVDIFQEYPDEIEYIFKPPCVSVYRCGGCCNDEGLECVPTEESNITMQIMRIKPHQGQHIGEMSFANHTSCRCMSKLD | binds
26 | 62-1 (ligand) GQNHHEVVKFMDVYQRSYCHPREVCIDVGKEFGVATNTFFKPPCVSVYRCGGCCNDEGLECVPTEESNITMQIMRIKPHQGQHIGEMSFLQHNKCECRPKKD | binds
27 | 41-1 (ligand) AHYNTEILKFMDVYQRSYCHPREVCIDVGKEYPDEIEYIFKPSCVPLMRCGGCCNDEGLECVPTEESNITMQIMRIKPHQGQHIGEMSFLQHNKCECRPKKD | binds

The remaining lines, values ahead:

Row | binding | Binder
28 | binds | 81-13 (ligand) AHYNTEILKFMDVYQRSYCHPIETLVDIFQEYPDEIEYIFKPSCVPLMRCGGCCNDEGLECVPTEESNITMQIMRITVPLSQGPKPVTISFANHTSCRCMSKLD
29 | binds | 82-5 (ligand) AHYNTEILKFMDVYQRSYCHPIETLVDIFQEFGVATNTFFKPPCVSVYRCGGCCNDEGLECVPTEESNITMQIMRIKPHQGQHIGEMSFANHTSCRCMSKLD
30 | binds | 84-5 (ligand) AHYNTEILKFMDVYQRSYCHPIETLVDIFQEFGVATNTFFKPSCVPLMRCGGCCNDEGLECVPTEESNITMQIMRIKPHQGQHIGEMSFANHTSCRCMSKLD
31 | binds | 83-9 (ligand) AHYNTEILKFMDVYQRSYCHPIETLVDIFQEYPDEIEYIFKPPCVSVYRCGGCCNDEGLECVPTEESNITMQIMRITVPLSQGPKPVTISFLQHNKCECRPKKD
32 | binds | 13-9 (ligand) GQNHHEVVKFMDVYQRSYCHPIETLVDIFQEYPDEIEYIFKPPCVSVYRCGGCCNDEGLECVPTEESNITMQIMRITVPLSQGPKPVTISFLQHNKCECRPKKD
33 | binds | 81-9 (ligand) AHYNTEILKFMDVYQRSYCHPIETLVDIFQEYPDEIEYIFKPSCVPLMRCGGCCNDEGLECVPTEESNITMQIMRITVPLSQGPKPVTISFLQHNKCECRPKKD
34 | binds | 83-13 (ligand) AHYNTEILKFMDVYQRSYCHPIETLVDIFQEYPDEIEYIFKPPCVSVYRCGGCCNDEGLECVPTEESNITMQIMRITVPLSQGPKPVTISFANHTSCRCMSKLD
35 | binds | 11-9 (ligand) GQNHHEVVKFMDVYQRSYCHPIETLVDIFQEYPDEIEYIFKPSCVPLMRCGGCCNDEGLECVPTEESNITMQIMRITVPLSQGPKPVTISFLQHNKCECRPKKD
36 | binds | 11-13 (ligand) GQNHHEVVKFMDVYQRSYCHPIETLVDIFQEYPDEIEYIFKPSCVPLMRCGGCCNDEGLECVPTEESNITMQIMRITVPLSQGPKPVTISFANHTSCRCMSKLD
37 | binds | 83-3 (ligand) AHYNTEILKFMDVYQRSYCHPIETLVDIFQEYPDEIEYIFKPPCVSVYRCGGCCNSEGLQCVPTEESNITMQIMRIKPHQGQHIGEMSFLQHNKCECRPKKD
38 | binds | 13-13 (ligand) GQNHHEVVKFMDVYQRSYCHPIETLVDIFQEYPDEIEYIFKPPCVSVYRCGGCCNDEGLECVPTEESNITMQIMRITVPLSQGPKPVTISFANHTSCRCMSKLD
39 | binds | 13-15 (ligand) GQNHHEVVKFMDVYQRSYCHPIETLVDIFQEYPDEIEYIFKPPCVSVYRCGGCCNSEGLQCVPTEESNITMQIMRITVPLSQGPKPVTISFANHTSCRCMSKLD
